Assay results from publication PMC10946806 (Chemistry (Weinheim an Der Bergstrasse, Germany), 2023).

Assay: general procedure: Fmoc solid-phase peptide synthesis; Rink amide ChemMatrix resin
Settings: whole synthesis; for final HPLC purity: analytical RP-HPLC

| Substance | final HPLC purity (hydrocarbon staple) | isolated yield (hydrocarbon staple) | isolated yield | final HPLC purity |
| --- | --- | --- | --- | --- |
| FTU-Ahx-AKR8YAR(Nle)GRR8LKEIAK-NH2 | 96% | 3% |  |  |
| FTU-Ahx-AKR8YAR(Nle)GRS8LKEIAK-NH2 | 97% | 5% |  |  |
| FTU-Ahx-AKS8YAR(Nle)GRR8LKEIAK-NH2 | 97% | 3% |  |  |
| FTU-Ahx-AKR7YAR(Nle)GRR7LKEIAK-NH2 | 96% | 4% |  |  |
| PEPTIDE1{[FTU].[Ahx].A.K.[R7].Y.A.R.[Nle].G.R.[S7].L.K.E.I.A.K.[am]}$PEPTIDE1,PEPTIDE1,5:R3-12:R3$$$V2.0 |  |  | 4% | 98% |
| FTU-Ahx-AKS5YAR(Nle)GRS5LKEIAK-NH2 | 98% | 2% |  |  |
| PEPTIDE1{[FTU].[Ahx].A.K.A.Y.A.R.[Nle].G.R.A.L.K.E.I.A.K.[am]}$$$$V2.0 |  |  | 10% | 99% |
| PEPTIDE1{[FTU].[Ahx].A.K.[S7H].Y.A.R.[Nle].G.R.[S7H].L.K.E.I.A.K.[am]}$PEPTIDE1,PEPTIDE1,5:R3-12:R3$$$V2.0 |  |  | 2% | 98% |
| Ac-AKS7YAR(Nle)GRS7LKEIAK-NH2 | 98% | 3% |  |  |
| PEPTIDE1{[FTU].[Ahx].A.K.[S7].Y.A.R.[Nle].G.R.[S7].L.K.E.I.A.K.[am]}$PEPTIDE1,PEPTIDE1,5:R3-12:R3$$$V2.0 |  |  | 6% | 99% |
| Ac-AKAYAR[Nle]GRALKEIAK-NH2 (SMILES CCCC[C@H](NC(=O)[C@H](CCCNC(=N)N)NC(=O)[C@H](C)NC(=O)[C@H](Cc1ccc(O)cc1)NC(=O)[C@H](C)NC(=O)[C@H](CCCCN)NC(=O)[C@H](C)NC(C)=O)C(=O)NCC(=O)N[C@@H](CCCNC(=N)N)C(=O)N[C@@H](C)C(=O)N[C@@H](CC(C)C)C(=O)N[C@@H](CCCCN)C(=O)N[C@@H](CCC(=O)O)C(=O)N[C@H](C(=O)N[C@@H](C)C(=O)N[C@@H](CCCCN)C(N)=O)[C@@H](C)CC) |  |  | 12% | 99% |
| FTU-Ahx-AKS6YAR(Nle)GRS6LKEIAK-NH2 | 95% | 3% |  |  |

HELM strings list residues between dots; [ac] is acetyl, [am] amide, other brackets name non-standard units. Non-standard residues stand in square brackets, D forms with d. Nle = CCCC[C@H](N)C(=O)O
